Results are given in words; binding and its absence hold for the method and conditions named. Some binding calls cover weakened binding; strength is not graded here. Blank lines part the entries; values can stand above or below the binder they belong to.
Experiments:
[1] = target: recombinant hTACSTD2-Fc-His protein (Creative BioMart) (human) (UniProt P09758); assay: low-density antigen-coated ELISA, plate coated with 0.1 µg/mL hTACSTD2-Fc-His
[2] = target: recombinant hTACSTD2-Fc-His protein (Creative BioMart) (human) (UniProt P09758); assay: low-density antigen-coated ELISA, 0.1 µg/mL hTACSTD2-Fc-His, culture supernatant of transfected cells

Chains of the proteins cited; added tags and fusions are not shown. Lines headed by an entry give the natural chain unless they say otherwise; changes in a name come on top.
UniProt P09758: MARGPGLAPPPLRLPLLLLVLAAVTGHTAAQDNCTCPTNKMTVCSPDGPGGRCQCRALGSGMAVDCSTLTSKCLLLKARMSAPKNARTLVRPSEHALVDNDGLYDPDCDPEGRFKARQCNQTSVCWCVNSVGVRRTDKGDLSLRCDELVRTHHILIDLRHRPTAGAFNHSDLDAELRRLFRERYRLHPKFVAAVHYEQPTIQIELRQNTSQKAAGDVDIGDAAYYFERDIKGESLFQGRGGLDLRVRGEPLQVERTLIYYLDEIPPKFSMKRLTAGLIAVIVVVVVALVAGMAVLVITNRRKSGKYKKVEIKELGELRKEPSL

- binding [1]: binds
B1: humanized T6-16 antibody HuT6-16-2 (antibody, V domains shown)
VH: QVQLVQSGAEVKKPGASVKVSCKASGYTFTDYNMHWVRQAPGQGLEWIGYIYPYNGGTGYNQRFKSRATMTVDTSTSTAYMELRSLRSDDTAVYYCAREDYGSSPSYAMDYWGQGTMVTVSS
VL: DIVMTQSPLSLPVTPGEPASISCRSSQSLVHGNGNTYLHWYLQKPGQSPQLLIYKVSNRFSGVPDRFSGSGSGTDFTLKISRVEAEDVGVYYCSQTTHVPTFGGGTKVEIK

- binding [2]: binds
B2: HuK5-70 VH A40R (antibody, V domains shown)
VH: QVQLVQSGAEVKKPGASVKVSCKASGYTFTIYWINWVRQRPGQRLEWIGNIYPSDSYTNYNQKFKDKATLTVDTSASTAYMELSSLRSEDTAVYYCTRTSMADYWGQGTLVTVSS
VL: EIVLTQSPATLSLSPGERATLSCRASQSIGTSIHWYQQKPGQAPRLLIKYASESISGIPARFSGSGSGTDFTLTISSLEPEDFAVYYCQQSNSWPFTFGQGTKVEIK
